The values below come from patent US8017807B2, “Tetrahydroxy compound, method for preparing the tetrahydroxy compound, and photoreceptor using the tetrahydroxy compound” (Ricoh Company Limited, priority 2005, dated 2011).

SMILES strings stand for the structures.

A short description of the data set: Crosslinked outermost layer of photoreceptor from methanol coating liquid; image formation. How it is done: Preparation of Crosslinked Charge Transport Layer Using Sol-Gel Method
The following components were mixed.
The mixture was agitated for one hour at room temperature to perform a reaction. Then 53.4 mg of tris(2,4-pentanedionate)aluminum (III) was added to the mixture to prepare a coating liquid including methanol as a solvent.
The coating liquid was coated on the above-prepared charge transport layer by a spray coating method and then dried to form an outermost layer with a thickness of 2 μm. The photoreceptor was heated for 1 hour at 130° C. to crosslink the outermost layer.
The photoreceptor was set in the main body of the image forming apparatus (IMAGIO NEO) to produce images. The resultant images had good image qualities.
The procedure for preparation of the outermost layer in Applied Example 1 was repeated except that the compound of Example 1 was replaced with each of the comparative compounds (6) to (9).

As for `CCc1ccc(N(c2ccc(CCO)cc2)c2ccc(CCO)cc2)cc1C` [Comp. compound (8)], the “Appearance of coated outermost layer” value (spray-coated on charge transport layer) is “opaque due to occurrence of phase separation”.

For `Cc1ccc(N(c2ccc(C)cc2)c2ccc(C=C(c3ccc(OCC(O)CO)cc3)c3ccc(OCC(O)CO)cc3)cc2)cc1` (centres unmarked) [Compound of Ex. 1, N-{4-[2,2-bis(4-(2,3-dihydroxypropyloxy)phenyl)vinyl]phenyl}-N,N-bis(4-tolyl)amine], the Charge transport property result (photoreceptor with crosslinked outermost layer, images produced in IMAGIO NEO) was “good charge transport property”.
